Drawing on PubChem BioAssay AID2685 (National Center for Advancing Translational Sciences (NCATS), 2010), this text covers cell number change and AC50 for 62 compounds.

The assay is described as follows: qHTS Assay for Lipid Storage Modulators in Drosophila S3 Cells.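 On cell number change: cells counted by Cell Tracker Red CMTPX staining in the red channel.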 The following applies: BODIPY lipid droplet fluorescence, 18-24 h; for cell number change: measured here: cell count max response, cells fed with added oleic acid. The procedure, abridged: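 Drosophila S3 cells loaded with oleic acid (400 uM, as added) and compounds at several concentrations; lipid droplets imaged by 488-nm laser-scanning cytometry, 500–530 nm intensity and object ratio to cell channel. Percent activity normalized to 20 uM Triacsin C.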

Where [1] appears, read: measured here: lipid fluorescence (Fed channel) AC50, cells fed with added oleic acid.
Where [2] appears, read: measured here: cell number channel AC50, cells fed with added oleic acid.

The other results are listed elsewhere or left out. Further columns of the screen follow, without active or inactive calls. Compounds called inactive in the main read-out are mostly missing here. Words in brackets tell the shape of the fitted curve; partial curves, single points and poor fits give uncertain potencies.

The AC50 is the midpoint of the concentration-response curve, whichever way the signal moves. Read a high AC50 as activity only at high concentration. Regarding `Cc1cc(F)ccc1Oc1cc(NN2CCCCC2)c([N+](=O)[O-])cc1[N+](=O)[O-]`, the cell number change worked out at 6.8%. Under setting [1], the AC50 was 29.1 µM [rising, single point].

For the compound `CC(C)(C)C(=O)NC(c1ccccc1)c1c(O)ccc2ccccc12` (stereo not given), the cell number change was -61.4%. Under setting [2], the AC50 was 20.6 µM [falling, single point]. Also, the AC50 under setting [1] is 23.1 µM [falling, partial curve]. For `COC(=O)[C@@H](Cc1ccccc1)NC(=O)NCCc1ccc(OC)c(OC)c1`, the cell number change came out at 40.8%. Under setting [2], the AC50 was 16.4 µM [rising, partial curve]. For `CC(=O)NN1C(=O)c2ccc3c4c(ccc(c24)C1=O)C(=O)N(NC(C)=O)C3=O`, the cell number change was -47.5%. Besides, under setting [2], the AC50 was 8.2 µM [falling, partial curve]. Besides, the concentration at half-maximal activity (AC50) under setting [1] is 2.59 µM [falling, partial curve, poor fit]. As to `CSCCOC(=O)C1=C(C)Nc2ccc(C)cc2S1`, the cell number change was found to be 0.483%. Also, the AC50 under setting [2] is 5.8 µM [rising, single point]. For the same compound, the AC50 under setting [1] is 6.51 µM [rising, single point].

Regarding `COc1ccc(C)cc1NC(=O)C(C)N1CCOCC1` (stereo not given), the cell number change turned out to be 6.63%. Regarding `CCc1c(C(C)O)oc2ccc3c(C)cc(=O)oc3c12` (stereo not given), the cell number change is -9.32%. Moreover, under setting [1], the AC50 was 29.1 µM [falling, single point]. With `CCCCNC(=S)NNC(=O)c1cc(C)on1`, the cell number change is -2.09%. Turning to `COc1ccc(NC(=O)N2CCC(Cc3ccccc3)CC2)cc1`, the cell number change is -4.46%. Under setting [1], the concentration at half-maximal activity (AC50) was 1.46 µM [falling, full curve]. Regarding `O=C(O)CCSc1ccccn1`, the cell number change was 11%. The AC50 under setting [1] was 0.411 µM [rising, single point]. As for `O=C(Nc1ccc2nsnc2c1)c1ccc2c(c1)OCO2`, the cell number change was -3.59%. Besides, the AC50 under setting [1] is 7.31 µM [rising, partial curve, poor fit].

For the compound `CC(=O)N1CCCc2cc(S(=O)(=O)N3CCCC(C(=O)Nc4ccc(C)cc4C)C3)ccc21` (stereo not given), the cell number change turned out to be 36.3%. Also, the AC50 under setting [2] was 20.6 µM [rising, single point]. The AC50 under setting [1] was 16.4 µM [rising, single point]. Regarding `CC1(C)Cc2cccc(OCC(=O)NC3CC3)c2O1`, the cell number change is -0.0966%. As to `CC12CC(NC(=O)N1c1cccc(C(=O)Nc3ncn[nH]3)c1)c1ccccc1O2` (stereo not given), the cell number change amounted to 2.81%. Further, the AC50 under setting [1] was 29.1 µM [falling, single point]. Take `CCCC(NCC(=O)Nc1ccccc1C(=O)NC1CC1)c1ccccc1` (stereo not given): the cell number change worked out at 27.7%. Besides, the AC50 under setting [2] is 0.92 µM [rising, partial curve]. On to `Cc1ccc(S(=O)(=O)NC2CCCc3ccccc32)cc1C` (stereo not given), for which the cell number change was found to be 52.6%. Also, under setting [2], the AC50 was 29.1 µM [rising, single point]. The AC50 under setting [1] was 0.0058 µM [rising, full curve, poor fit]. On to `COc1cc(C)c(Cl)cc1S(=O)(=O)NCc1ccccn1`, for which the cell number change worked out at 17.2%. The AC50 under setting [1] is 0.58 µM [falling, single point]. On to `COc1ccc(-c2cc(C(F)(F)F)nc(N3CCN(C)CC3)n2)cc1`, for which the cell number change is -34.5%. For the compound `Cc1ccc(NS(=O)(=O)c2c(C(=O)N3CCCCCC3)c(C)n(C)c2C)c(Cl)c1`, the cell number change is 12.2%. With `CCN(CC)CP(=O)(c1ccccc1)c1ccccc1`, the cell number change amounted to 12.4%. In the case of `CCCCCO`, the cell number change turned out to be 6.78%. For the same compound, the AC50 under setting [1] is 25.9 µM [rising, single point]. As to `Cc1cc(C)n(-c2c(F)c(F)c(COC(=O)c3ccccc3)c(F)c2F)n1`, the concentration at half-maximal activity (AC50) under setting [2] was 5.17 µM [falling, single point]. In the case of `COc1ccc(C(CC(=O)O)NC(=O)C2CCCCC2)cc1` (stereo not given), the cell number change is -7.03%. As to `Clc1ccc(OCc2nnc3n2N=C(c2ccc4c(c2)OCCO4)CS3)c(Cl)c1`, the AC50 by setting is: under setting [2], 0.0651 µM [rising, full curve, poor fit]; under setting [1], 3.26 µM [rising, partial curve]. For the compound `CN(C(=O)c1ccccc1C(=O)OCC(=O)c1ccc(Br)cc1)c1ccccc1`, the cell number change was 32.7%. The AC50 under setting [2] was 32.6 µM [rising, single point]. Turning to `Cc1ccc(-c2nn(-c3ccc(F)cc3)cc2C(=O)NCC(c2cccs2)N2CCOCC2)cc1` (stereo not given), the cell number change is -9.64%. `COc1ccc(-n2nc3c(c2NC(=O)COc2ccccc2)CS(=O)(=O)C3)cc1`: the cell number change is 17.3%. `CCCCOc1ccc(NC(=O)CSCC(=O)OCC)cc1`: the cell number change is -5.89%. Moreover, the AC50 under setting [1] was 6.51 µM [falling, single point]. Turning to `O=C(COC(=O)C12CC3CC(CC(C3)C1)C2)Nc1ccc([N+](=O)[O-])cc1Cl`, the cell number change is 3.23%. The AC50 under setting [1] is 13 µM [falling, partial curve, poor fit]. Consider `CCOCCCn1c(=S)[nH]c2cc(C(=O)N3CCOCC3)ccc2c1=O`, for which the cell number change is -12.7%. For the same compound, the AC50 under setting [1] is 32.6 µM [falling, single point]. With `Cc1ccccc1NCC(=O)Nc1cc(S(=O)(=O)N2CCCCC2)ccc1C`, the cell number change worked out at 12.8%. Further, under setting [1], the AC50 is 3.66 µM [falling, partial curve]. Regarding `O=C(c1ccc(=O)n(Cc2ccc(Cl)c(Cl)c2)c1)N1CCOCC1`, the cell number change was determined as 5.17%. `Cc1nnc(NC(=O)CSc2nnc(C(C)NC(=O)c3ccccc3F)n2C)s1` (stereo not given): the cell number change is -5.13%. Moreover, the AC50 under setting [1] was 29.1 µM [rising, single point]. `N#Cc1nc(Cc2ccccc2)oc1N1CCN(c2cccc(Cl)c2)CC1`: the cell number change is -22.6%. Also, the AC50 under setting [2] was 3.26 µM [falling, single point]. Besides, the AC50 under setting [1] is 18.4 µM [rising, single point]. For `Cc1scc(C(=O)NNC(=S)NC(C)c2ccccc2)c1C` (stereo not given), the cell number change turned out to be 16.3%. The AC50 under setting [1] is 29.1 µM [rising, single point].

Regarding `COc1ccc(C(=O)NC(=S)NCc2ccc(-c3nc4ccccc4o3)cc2)cc1OC`, the cell number change was -52.4%. In addition, the AC50 under setting [2] is 20.6 µM [falling, single point]. Consider `Cn1c(SCCC#N)nnc1-c1ccccc1F`, for which, under setting [2], the AC50 was 0.103 µM [falling, full curve, poor fit].

For `CSc1ncc(Cl)c(C(=O)Nc2ccc(S(=O)(=O)Nc3nccc(C)n3)cc2)n1`, the cell number change stood at 27.6%. In addition, the AC50 under setting [2] is 0.731 µM [rising, full curve, poor fit]. Under setting [1], the AC50 is 0.00461 µM [falling, full curve, poor fit]. Take `O=C(NCC1CCCO1)c1ccc(NC(=O)C2C3C=CC(C3)C2C(=O)O)cc1` (stereo not given): the cell number change was determined as 17.8%.

For `CCCN(CC(=O)Nc1ccccc1C)C(=O)COc1ccc2c(c1)CCC2`, the cell number change turned out to be 38.2%. Further, under setting [2], the AC50 was 29.1 µM [rising, single point]. Moreover, the AC50 under setting [1] is 25.9 µM [rising, partial curve]. As to `O=C(CSc1nncn1-c1cccnc1)Nc1ccccc1C(F)(F)F`, the cell number change turned out to be 9.57%. In addition, the AC50 under setting [1] is 29.1 µM [rising, single point]. Consider `Cc1ccc(CCNC(=O)C2CCC(=O)N(Cc3cccc(F)c3)C2)cc1` (stereo not given), for which the cell number change turned out to be 0.99%. Besides, the AC50 under setting [1] is 29.1 µM [rising, single point]. On to `Fc1cc(F)cc(NC(=S)N2CCN(c3ncccn3)CC2)c1`, for which the cell number change came out at 46.3%. Moreover, under setting [2], the AC50 is 6.51 µM [falling, partial curve, poor fit]. For the compound `CCc1nnc(NC(=O)CN2C(=O)NC3(CC(C)CC(C)(C)C3)C2=O)s1` (stereo not given), the cell number change was -46.1%. In addition, the AC50 under setting [2] was 23.1 µM [falling, single point]. Take `COc1ccc(C)cc1S(=O)(=O)N1CCN(C(=O)c2ncoc2-c2cccc(F)c2)CC1`: the cell number change stood at 30.3%. Regarding `Nc1nc2c(s1)CCc1c-2cnn1-c1ccccc1`, the cell number change was -84.1%. In addition, under setting [2], the AC50 was 20.6 µM [falling, single point]. The AC50 under setting [1] was 23.1 µM [falling, single point]. In the case of `CCCCN(CCCC)c1nc(-c2ccncc2)nc2ccccc12`, the cell number change was 18.8%. The AC50 under setting [1] is 6.51 µM [rising, partial curve]. On to `COc1c(Cl)cnn(-c2ccc(Cl)c(Cl)c2)c1=O`, for which the cell number change stood at 30.9%. For the same compound, the AC50 under setting [2] is 0.517 µM [rising, full curve, poor fit]. Further, the AC50 under setting [1] was 4.11 µM [rising, partial curve]. On to `COc1ccc(S(=O)(=O)n2nc(OC(=O)c3ccccc3)cc2N)cc1`, for which the cell number change was 5.81%. Also, under setting [1], the AC50 is 20.6 µM [falling, single point]. `c1csc(-c2nn3c(Cn4cnc5ccccc54)nnc3s2)c1`: the cell number change came to 76.4%. Also, the AC50 under setting [2] is 9.2 µM [rising, partial curve]. Under setting [1], the AC50 is 6.51 µM [rising, single point]. Consider `CCOC(=O)c1cccc(NC(=O)C2CCCN2S(=O)(=O)c2cccc3cccnc23)c1` (stereo not given), for which the AC50 runs as follows: under setting [2], 0.13 µM [rising, full curve, poor fit]; under setting [1], 2.31 µM [rising, partial curve]. Regarding `CN(C)S(=O)(=O)c1ccc(NC(=O)c2ccc(Br)o2)cc1`, the cell number change is -11.2%. Besides, the AC50 under setting [2] was 6.51 µM [rising, single point]. The half-maximal activity concentration (AC50) under setting [1] is 29.1 µM [rising, partial curve]. Consider `COc1ccccc1CNC(=S)Nc1ccc(F)cc1`, for which the cell number change is -1.09%. Take `c1ccc(Oc2nc(Oc3ccccc3)nc(N3CCOCC3)n2)cc1`: the cell number change is 28.3%. For the same compound, the AC50 under setting [1] is 20.6 µM [rising, partial curve]. In the case of `Cc1cccc(NC(=O)C[n+]2ccccc2)c1`, the cell number change worked out at 16.7%.

For the compound `Cc1csc(NC(=O)c2c(O)c3c(n(CC(C)C)c2=O)CCCC3)n1`, the AC50 under setting [2] is 1.3 µM [rising, full curve]. As for `COc1cc2nc(NC(=O)c3ccccc3)[nH]c(=O)c2cc1OC`, the cell number change was -8.05%. For the same compound, under setting [1], the AC50 was 16.4 µM [falling, single point].

As to `CCc1sc(C(=O)N2CCCN(C)CC2)cc1Br`, the cell number change stood at 9.68%. Consider `O=[N+]([O-])c1ccc(NNC(=S)Nc2ccccc2)cc1`, for which the cell number change is -46.2%. Also, under setting [2], the AC50 was 2.91 µM [rising, partial curve].

Regarding `Cn1cccc1Cc1nnc(SCC(=O)NC2CCCCC2)n1-c1ccc(F)cc1`, the cell number change amounted to 76.3%. In addition, under setting [2], the AC50 was 20.6 µM [rising, single point]. The AC50 under setting [1] was 0.164 µM [rising, full curve, poor fit]. As for `Cc1nc(N2CCOCC2)nc2c1CCCC2`, the cell number change was -26%. Further, the AC50 under setting [1] was 20.6 µM [falling, partial curve]. Consider `CCOc1ccc(CCNC(=O)CSCC(=O)Nc2cccc(C)c2)cc1OCC`, for which the cell number change stood at 108%. The AC50 under setting [2] is 20.6 µM [rising, single point]. Moreover, the AC50 under setting [1] was 3.66 µM [falling, partial curve].
